This is an account of results in US20110206689A1, “Molecular Determinants Associated With Prostate Cancer And Methods Of Use Thereof” (Dana-Farber Cancer Institute, Inc., priority 2010, published 2011).

Sequences of proteins named here, by UniProt entry; tags and fusion partners are left off.
UniProt P31749: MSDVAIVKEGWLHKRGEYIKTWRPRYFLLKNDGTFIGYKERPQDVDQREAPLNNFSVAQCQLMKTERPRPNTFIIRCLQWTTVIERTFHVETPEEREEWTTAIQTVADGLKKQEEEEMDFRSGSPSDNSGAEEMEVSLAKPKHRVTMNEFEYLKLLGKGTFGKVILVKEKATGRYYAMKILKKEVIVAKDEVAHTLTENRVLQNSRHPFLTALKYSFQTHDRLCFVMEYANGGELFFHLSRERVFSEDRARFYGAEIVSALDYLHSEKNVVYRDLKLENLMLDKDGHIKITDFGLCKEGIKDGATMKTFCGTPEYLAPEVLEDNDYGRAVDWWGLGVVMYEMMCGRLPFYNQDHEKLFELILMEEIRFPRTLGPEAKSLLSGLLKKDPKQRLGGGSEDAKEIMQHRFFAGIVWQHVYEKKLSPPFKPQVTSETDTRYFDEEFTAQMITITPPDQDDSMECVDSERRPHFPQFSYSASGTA

These are yes or no findings as the source states them, for the method shown. Binding seen in cells or lysates may run through a third protein. These calls come from enrichment with a bait or labelling near it, and not all partners need be listed. Tags and fused reporters may be left off the sequences shown.

This experiment concerns the target AKT1 (UniProt P31749). Put plainly: Flag immunoprecipitation of TK1 immune complexes from androgen independent tumors, mass spectrometry.

B1: Flag-tagged thymidine kinase 1 (TK1) (enzyme, human, UniProt P04183 1-234, looked up)
chain: MSCINLPTVLPGSPSKTRGQIQVILGPMFSGKSTELMRRVRRFQIAQYKCLVIKYAKDTRYSSSFCTHDRNTMEALPACLLRDVAQEALGVAVIGIDEGQFFPDIVEFCEAMANAGKTVIVAALDGTFQRKPFGAILNLVPLAESVVKLTAVCMECFREAAYTKRLGTEKEVEVIGGADKYHSVCRLCYFKKASGQPAGPDNKENCPVPGKPGEAVAARKLFAPQQILQCSPAN
As to B1, the binding entry is recorded as “binds”.
